PubChem BioAssay AID743454, Peter MacCallum Cancer Centre, 2014
Assay: 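Search for knock-downs that restore vorinostat killing in resistant colon cancer cells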 (primary screen). System: human HCT116-VR colon cancer cells, selected for vorinostat resistance. Knock-down reagent: siRNA pool against human genes, 40 nM siRNA pool. Duration: vorinostat for 24 h, read-out about 72 h after transfection. Conditions: vorinostat at 2.5 µM final. Detection: 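Two measures, CellTiter-Fluor viability and luminescent caspase 3/7 activity, each as fold change against same-plate mock wells, mean of duplicates, then screen-wide robust z-score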. Scale: viability robust z-score: higher = more viable cells than screen typical; caspase robust z-score: higher = more caspase 3/7 activity than screen typical. Active means: 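a knock-down is a hit when classed RV1 or RV2 for lowered viability, or CA1 or CA2 for caspase activation; those lethal without drug were dropped; hits were retested singly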.
The whole screen tested about 18,000 reagents; this is an unselected part. 450 of all reagents (2.5%) were called active. 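Single biological run; no consistent viability z cut-off exists, so the class columns, not z-scores, define the calls.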 The numbers tell different reagents against one gene apart.

| viability hit class | caspase hit class | viability robust z-score | caspase robust z-score | activity call | gene knocked down | reagent |
| --- | --- | --- | --- | --- | --- | --- |
| no change | no change | -0.22 | -0.52 | inactive | ARL14EP (ARF like GTPase 14 effector protein) | 1 |
| no change | no change | 0.4 | 2.88 | inactive | PKD2L1 | 1 |
| no change | no change | 0.18 | 0.15 | inactive | IGF1R (insulin like growth factor 1 receptor) | 1 |
| no change | no change | -0.43 | 1.72 | inactive | ATG9A (autophagy related 9A) | 1 |
| RV2 (reduced viability) | no change | -3.08 | 0.22 | active | ARLN (allregulin) | 1 |
| no change | no change | 0.35 | 0.84 | inactive | DDRGK1 (DDRGK domain containing 1) | 1 |
| no change | no change | 0.72 | -0.15 | inactive | EOMES (eomesodermin) | 1 |
| no change | no change | 0.71 | -0.32 | inactive | NCAPG (non-SMC condensin I complex subunit G) | 1 |
| no change | no change | -4.97 | 1.02 | inactive | EIF4A3 (eukaryotic translation initiation factor 4A3) | 1 |
| no change | no change | -0.14 | -0.88 | inactive | NOTUM (notum, palmitoleoyl-protein carboxylesterase) | 1 |
| no change | no change | 0.33 | 0.7 | inactive | KRT5 (keratin 5) | 1 |
| no change | no change | 0.86 | -0.4 | inactive | CYTH4 (cytohesin 4) | 1 |
| no change | no change | 0.23 | 0.12 | inactive | TXLNA (taxilin alpha) | 1 |
| no change | no change | 1.01 | -0.06 | inactive | PWWP2B (PWWP domain containing 2B) | 1 |
| no change | no change | -1.41 | 0.5 | inactive | TCL6 (T cell leukemia/lymphoma 6) | 1 |
| no change | no change | 0.36 | 0.27 | inactive | OR7D4 (olfactory receptor family 7 subfamily D member 4) | 1 |
| no change | no change | 0.33 | 1.31 | inactive | OR10H5 (olfactory receptor family 10 subfamily H member 5) | 1 |
| no change | no change | 1.09 | -0.36 | inactive | ZNF362 (zinc finger protein 362) | 1 |
| no change | no change | 0.76 | -0.5 | inactive | ST8SIA6 (ST8 alpha-N-acetyl-neuraminide alpha-2,8-sialyltransferase 6) | 1 |
| no change | no change | 0.22 | -0.44 | inactive | SENP5 (SUMO specific peptidase 5) | 1 |
| no change | no change | -0.2 | 0.18 | inactive | NCBP3 (nuclear cap binding subunit 3) | 1 |
| no change | no change | 0.18 | 2.21 | inactive | CD74 (CD74 molecule) | 1 |
| no change | no change | -0.06 | -0.8 | inactive | TAS2R39 (taste 2 receptor member 39) | 1 |

Called active (from the list above):
| viability hit class | caspase hit class | viability robust z-score | caspase robust z-score | activity call | gene knocked down | reagent |
| --- | --- | --- | --- | --- | --- | --- |
| RV2 (reduced viability) | no change | -3.08 | 0.22 | active | ARLN (allregulin) | 1 |

Continued.
| viability hit class | caspase hit class | viability robust z-score | caspase robust z-score | activity call | gene knocked down | reagent |
| --- | --- | --- | --- | --- | --- | --- |
| no change | no change | 0.06 | 0.76 | inactive | PIF1 (PIF1 5'-to-3' DNA helicase) | 1 |
| no change | no change | 0.8 | -0.66 | inactive | TCF4 (transcription factor 4) | 1 |
| no change | no change | 1.08 | 0.62 | inactive | OR4D10 (olfactory receptor family 4 subfamily D member 10) | 1 |
| no change | no change | -0.44 | -0.94 | inactive | PALD1 (phosphatase domain containing paladin 1) | 1 |
| no change | no change | 0.88 | -0.46 | inactive | MYLK3 (myosin light chain kinase 3) | 1 |
| no change | no change | -0.61 | 4.08 | inactive | IL4I1 (interleukin 4 induced 1) | 1 |
| no change | no change | 1.2 | -0.53 | inactive | PIP4K2C (phosphatidylinositol-5-phosphate 4-kinase type 2 gamma) | 1 |
| no change | no change | 1.26 | -0.28 | inactive | ADORA2B (adenosine A2b receptor) | 1 |
| no change | no change | 0.81 | 1.32 | inactive | JUP (junction plakoglobin) | 1 |
| no change | no change | -0.17 | 0.91 | inactive | NECAB1 (N-terminal EF-hand calcium binding protein 1) | 1 |
| no change | no change | -0.94 | 0.29 | inactive | HYLS1 (HYLS1 centriolar and ciliogenesis associated) | 1 |
| no change | no change | -0.77 | -0.98 | inactive | FREM1 (FRAS1 related extracellular matrix 1) | 1 |
| no change | no change | 0.88 | -0.9 | inactive | ARL15 (ARF like GTPase 15) | 1 |
| no change | no change | -0.57 | -1.22 | inactive | EFHD1 (EF-hand domain family member D1) | 1 |
| no change | no change | 0.25 | 0.06 | inactive | L3MBTL2 (L3MBTL histone methyl-lysine binding protein 2) | 1 |
| no change | no change | -0.12 | -0.46 | inactive | COQ8B (coenzyme Q8B) | 1 |
| no change | no change | -1.92 | 0.98 | inactive | PDCD5 (programmed cell death 5) | 1 |
| no change | no change | 0.01 | -0.42 | inactive | GAMT (guanidinoacetate N-methyltransferase) | 1 |
| no change | no change | -0.64 | 3.12 | inactive | BTF3L4 (basic transcription factor 3 like 4) | 1 |
| no change | no change | 0.02 | -0.78 | inactive | C9orf152 (chromosome 9 open reading frame 152) | 1 |
| no change | no change | 0.98 | -0.17 | inactive | PER1 (period circadian regulator 1) | 1 |
| no change | no change | 0.89 | -0.98 | inactive | ADAM9 (ADAM metallopeptidase domain 9) | 1 |
| no change | no change | 0.09 | -0.7 | inactive | GYPA (glycophorin A (MNS blood group)) | 1 |
| no change | no change | -2.79 | 1.65 | inactive | MEGF6 (multiple EGF like domains 6) | 1 |
| no change | no change | -1.52 | 0.01 | inactive | OR2AG1 (olfactory receptor family 2 subfamily AG member 1) | 1 |
| no change | no change | 1.01 | -1.09 | inactive | RASAL3 (RAS protein activator like 3) | 1 |
| no change | no change | -0.82 | 0.36 | inactive | PRXL2B (peroxiredoxin like 2B) | 1 |
| no change | no change | 0.34 | -0.49 | inactive | DYNLL2 (dynein light chain LC8-type 2) | 1 |
| no change | no change | -0.66 | -0.28 | inactive | SYNJ1 (synaptojanin 1) | 1 |
| no change | no change | -0.31 | -0.45 | inactive | PROCA1 (protein interacting with cyclin A1) | 1 |
| no change | no change | -0.02 | -0.55 | inactive | CFAP74 (cilia and flagella associated protein 74) | 1 |
| no change | no change | -0.4 | 2.33 | inactive | CFAP74 (cilia and flagella associated protein 74) | 2 |
| no change | no change | -1.82 | 2.4 | inactive | BRAF (B-Raf proto-oncogene, serine/threonine kinase) | 1 |
| no change | no change | 0.28 | 0.08 | inactive | GLDC (glycine decarboxylase) | 1 |
